# Measurements: US20260193623
# Experiments:
# Test in all cases: activity assay
# MG154-1 = system: T1, MG154-1; conditions: tested, not listed as active; protein translated in vitro; protein details: N-terminal Strep; label: 5'-FAM primer; DNA:RNA hybrid
# T1 sequence: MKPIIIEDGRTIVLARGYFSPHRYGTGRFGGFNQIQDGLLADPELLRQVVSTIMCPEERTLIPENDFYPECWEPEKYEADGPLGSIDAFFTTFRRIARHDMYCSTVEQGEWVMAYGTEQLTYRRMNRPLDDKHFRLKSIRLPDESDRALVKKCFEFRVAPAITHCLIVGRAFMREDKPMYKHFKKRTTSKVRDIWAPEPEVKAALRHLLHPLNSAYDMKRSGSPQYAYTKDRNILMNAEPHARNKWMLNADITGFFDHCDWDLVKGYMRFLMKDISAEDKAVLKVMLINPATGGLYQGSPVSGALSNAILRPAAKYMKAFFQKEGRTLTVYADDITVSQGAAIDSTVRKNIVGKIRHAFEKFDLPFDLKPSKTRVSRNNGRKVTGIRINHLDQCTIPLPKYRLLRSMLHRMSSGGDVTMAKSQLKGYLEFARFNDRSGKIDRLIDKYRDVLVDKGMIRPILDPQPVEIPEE
# MG151-89 = system: T2, MG151-89; conditions: primer extension gel; protein translated in vitro; protein details: Strep, RT-RNase H trim; label: 5'-FAM primer; DNA:RNA hybrid
# T2 sequence (limits assumed): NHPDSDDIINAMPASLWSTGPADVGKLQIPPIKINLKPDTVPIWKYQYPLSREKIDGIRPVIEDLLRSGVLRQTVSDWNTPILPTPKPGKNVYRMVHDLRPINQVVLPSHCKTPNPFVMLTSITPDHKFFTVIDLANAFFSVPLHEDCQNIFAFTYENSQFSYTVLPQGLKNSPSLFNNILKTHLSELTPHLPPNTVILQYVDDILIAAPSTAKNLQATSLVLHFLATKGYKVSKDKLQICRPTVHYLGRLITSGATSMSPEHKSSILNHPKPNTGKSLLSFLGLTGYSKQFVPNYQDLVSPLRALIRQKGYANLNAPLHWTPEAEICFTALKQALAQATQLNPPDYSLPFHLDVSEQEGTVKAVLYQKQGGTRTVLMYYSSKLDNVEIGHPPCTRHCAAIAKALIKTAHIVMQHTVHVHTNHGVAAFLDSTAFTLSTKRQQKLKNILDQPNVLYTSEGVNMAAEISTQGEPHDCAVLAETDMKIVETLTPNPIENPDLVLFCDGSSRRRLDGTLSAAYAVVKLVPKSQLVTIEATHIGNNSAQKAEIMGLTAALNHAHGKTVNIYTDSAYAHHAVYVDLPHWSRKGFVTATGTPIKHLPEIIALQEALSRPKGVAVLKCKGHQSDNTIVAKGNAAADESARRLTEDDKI
# MG153-54 = system: T3, MG153-54; conditions: primer extension gel; 3 mM MgCl2, 37 C; protein translated in vitro; protein details: N-terminal Strep; label: 5'-FAM primer; DNA:RNA hybrid
# T3 sequence (limits assumed): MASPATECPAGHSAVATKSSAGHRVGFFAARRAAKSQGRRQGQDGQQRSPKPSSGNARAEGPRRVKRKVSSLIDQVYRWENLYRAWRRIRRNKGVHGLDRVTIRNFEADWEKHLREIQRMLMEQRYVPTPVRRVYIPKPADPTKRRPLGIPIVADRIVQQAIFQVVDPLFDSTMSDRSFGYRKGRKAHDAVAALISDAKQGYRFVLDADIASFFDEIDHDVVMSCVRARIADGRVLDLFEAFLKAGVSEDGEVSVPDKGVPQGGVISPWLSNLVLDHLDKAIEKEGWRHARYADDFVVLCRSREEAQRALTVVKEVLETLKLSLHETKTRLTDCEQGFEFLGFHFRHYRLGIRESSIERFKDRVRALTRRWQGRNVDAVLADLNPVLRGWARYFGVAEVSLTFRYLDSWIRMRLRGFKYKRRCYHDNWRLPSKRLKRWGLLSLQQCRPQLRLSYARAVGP
# MG160-3 = system: T4, MG160-3; conditions: primer extension gel and qPCR; protein translated in vitro; protein details: N-terminal Strep; label: 5'-FAM primer; DNA:RNA hybrid
# T4 sequence: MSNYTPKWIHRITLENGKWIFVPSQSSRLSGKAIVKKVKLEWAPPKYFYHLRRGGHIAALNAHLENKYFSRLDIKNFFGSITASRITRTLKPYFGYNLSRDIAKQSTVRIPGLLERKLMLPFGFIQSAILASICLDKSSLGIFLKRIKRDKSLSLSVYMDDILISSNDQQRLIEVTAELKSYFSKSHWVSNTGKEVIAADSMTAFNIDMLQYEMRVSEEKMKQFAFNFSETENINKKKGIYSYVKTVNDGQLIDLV
# MG173-3 = system: T5, MG173-3; conditions: primer extension on general RNA; protein translated in vitro; protein details: N-terminal Strep; label: 5'-FAM primer; DNA:RNA hybrid
# T5 sequence (limits assumed): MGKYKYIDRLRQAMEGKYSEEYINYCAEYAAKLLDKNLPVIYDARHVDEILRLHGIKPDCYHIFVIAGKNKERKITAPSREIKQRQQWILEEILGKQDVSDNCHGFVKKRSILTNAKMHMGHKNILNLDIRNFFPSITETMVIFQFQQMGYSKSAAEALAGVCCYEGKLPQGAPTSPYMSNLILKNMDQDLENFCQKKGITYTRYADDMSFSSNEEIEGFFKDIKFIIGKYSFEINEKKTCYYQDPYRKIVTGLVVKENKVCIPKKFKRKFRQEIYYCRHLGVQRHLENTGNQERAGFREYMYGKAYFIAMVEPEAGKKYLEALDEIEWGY
# MG156-2 = system: T6, MG156-2; conditions: primer extension on general RNA; protein translated in vitro; protein details: N-terminal Strep; label: 5'-FAM primer; DNA:RNA hybrid
# T6 sequence: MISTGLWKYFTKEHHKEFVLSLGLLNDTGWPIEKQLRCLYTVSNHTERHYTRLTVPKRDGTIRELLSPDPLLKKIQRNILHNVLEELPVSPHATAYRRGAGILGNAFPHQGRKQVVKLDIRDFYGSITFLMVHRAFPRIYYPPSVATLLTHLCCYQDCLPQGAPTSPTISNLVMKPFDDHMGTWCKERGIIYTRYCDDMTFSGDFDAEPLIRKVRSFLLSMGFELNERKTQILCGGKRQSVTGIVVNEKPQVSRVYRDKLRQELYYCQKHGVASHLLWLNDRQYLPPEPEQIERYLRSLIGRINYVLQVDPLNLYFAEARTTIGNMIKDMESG
sequence,measurement,setting,value
GGCAAACCGCCTCTCCCCGCGCGTTGGCCGATTCATTAATGCAGCTGGCACGACAGGTTTCCCGACTGGAAAGGAGACCCGGGCAGTGAGCGCAACGGGTCTCCAATTTAAGCCAGCCCCGACACCCGCCAACACCCGCTGACGCGCCCTGACGGGCTTGTCTGCTCCCGGCATCCGCTTACAGACAAGCTGTGACCGTCTC / GAGACGGTCACAGCTTGTCTG [202-nt RNA template annealed to DNA primer],activity on this sequence,MG154-1,not active
same,activity on this sequence,MG151-89,active
same,activity on this sequence,MG153-54,active
same,activity on this sequence,MG160-3,active
same,activity on this sequence,MG173-3,active
same,activity on this sequence,MG156-2,active

# For at least one entry, the source does not settle the construct or the ends of the probe. For part of these data: No signal at the amounts used counts as a negative. Tags and fusion partners may be left off the protein sequences shown.
